# Test results reported in PubChem BioAssay AID488820 (Broad Institute, 2010).
# Inconclusive results, whose numbers are uncertain, are shown with a selection of clear calls. Calls of active or inactive are those of the source.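 Rule for the calls: active = compounds raising nuclear GFP-tagged hypoxia factor signal, with fitted half-maximal dose at or below the top valid dose; inconclusive = flat response of 30 to 70% activation, or poor curve fit; inactive = the rest, including opposite-direction effects.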
# Assay: GFP-HIF1a nuclear translocation activators – imaging, U2OS HIF1a-GFP, high content, dry powder, dose response (AID 488820)
# Details: nuclear intensity imaging; at 38 µM (top of the series)
# Procedure, shortened: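 Material: U2OS cells with GFP-HIF1alpha | Input: 2,000 cells/well | Replicates: Duplicate | Doses: 8-point, 3-fold series | Buffer or medium: Culture medium lacking phenol red | Incubation: 24 h compound exposure at 37 °C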
row,SMILES,activation
1,OCC1CCN(c2nc(-c3ccccn3)nnc2-c2ccccc2)CC1,inconclusive: 110%
2,O=C(Nc1nc2ccccc2s1)c1cc(-c2ccccc2)on1,inactive: 12.2%
